This is one part of the list.
Compound: Cc1cc(Nc2cc(CN3CCOCC3)c3nc(C)c(Cc4ccc(Cl)cc4F)n3n2)n[nH]1 [gandotinib]
Experiment: log2 fold change, soluble protein after heating vs DMSO (PISA); higher = thermal stabilisation; K562 lysate, 10 uM; active = over 0.2 and 3.5 SD of the protein, either way, in both replicates (recomputed)
Procedure, shortened: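 Dounce homogenisation of K562 pellets in PBS pH 7.4 with 1 mM MgCl2 produced a crude extract, used at 1 mg/mL protein. Exposure to 10 μM compound lasted 30 min, and aliquots were then heated for 3 min across 48°C-58°C, pooled and brought to 0.5% NP-40 at 4°C. The supernatant after 21,000xg for 90 min was quantified by TMTpro 16plex LC-MS/MS with channel sums equalised. Duplicate values are given as log-two fold change in thermal stability relative to solvent controls.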

Amino acid sequences for entries named in this document (tags omitted). A change or cut given only in a name is not applied to a line headed by its entry.
UniProt Q9Y2Y6: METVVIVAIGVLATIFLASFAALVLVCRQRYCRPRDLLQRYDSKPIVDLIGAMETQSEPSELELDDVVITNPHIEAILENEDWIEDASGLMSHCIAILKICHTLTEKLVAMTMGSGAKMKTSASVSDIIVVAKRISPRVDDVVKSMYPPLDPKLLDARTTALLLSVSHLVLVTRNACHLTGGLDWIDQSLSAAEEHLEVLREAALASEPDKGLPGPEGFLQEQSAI
UniProt Q9NWD8: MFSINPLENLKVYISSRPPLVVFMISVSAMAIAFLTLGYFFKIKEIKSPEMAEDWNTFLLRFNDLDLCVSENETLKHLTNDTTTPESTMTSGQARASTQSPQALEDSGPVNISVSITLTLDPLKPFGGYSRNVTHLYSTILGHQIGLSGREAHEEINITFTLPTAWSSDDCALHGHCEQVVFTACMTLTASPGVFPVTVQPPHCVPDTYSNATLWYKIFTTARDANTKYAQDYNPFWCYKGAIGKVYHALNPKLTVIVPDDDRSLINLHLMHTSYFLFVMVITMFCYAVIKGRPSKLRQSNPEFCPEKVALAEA
UniProt P02585, whole entry, looked up: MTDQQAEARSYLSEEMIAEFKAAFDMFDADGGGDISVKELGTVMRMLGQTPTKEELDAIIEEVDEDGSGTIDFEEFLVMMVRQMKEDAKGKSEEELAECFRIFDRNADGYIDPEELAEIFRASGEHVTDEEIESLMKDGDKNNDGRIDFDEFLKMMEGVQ
UniProt P06753, whole entry, looked up: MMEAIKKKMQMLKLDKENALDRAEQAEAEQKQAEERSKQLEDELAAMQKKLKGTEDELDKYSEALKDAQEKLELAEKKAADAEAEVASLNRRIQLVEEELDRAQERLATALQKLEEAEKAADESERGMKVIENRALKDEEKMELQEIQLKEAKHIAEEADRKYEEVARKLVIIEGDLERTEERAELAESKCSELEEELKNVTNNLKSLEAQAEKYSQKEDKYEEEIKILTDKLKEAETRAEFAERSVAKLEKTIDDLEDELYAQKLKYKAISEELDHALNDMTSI
UniProt Q13829: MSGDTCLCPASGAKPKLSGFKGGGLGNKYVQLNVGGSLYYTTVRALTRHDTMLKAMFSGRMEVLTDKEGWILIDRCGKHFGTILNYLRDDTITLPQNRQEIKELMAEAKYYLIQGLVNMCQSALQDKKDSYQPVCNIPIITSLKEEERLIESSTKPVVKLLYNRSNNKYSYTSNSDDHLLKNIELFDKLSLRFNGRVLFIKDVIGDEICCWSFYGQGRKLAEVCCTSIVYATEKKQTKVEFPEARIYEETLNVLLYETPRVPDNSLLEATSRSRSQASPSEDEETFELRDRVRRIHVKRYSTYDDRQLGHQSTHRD
UniProt Q0VDI3: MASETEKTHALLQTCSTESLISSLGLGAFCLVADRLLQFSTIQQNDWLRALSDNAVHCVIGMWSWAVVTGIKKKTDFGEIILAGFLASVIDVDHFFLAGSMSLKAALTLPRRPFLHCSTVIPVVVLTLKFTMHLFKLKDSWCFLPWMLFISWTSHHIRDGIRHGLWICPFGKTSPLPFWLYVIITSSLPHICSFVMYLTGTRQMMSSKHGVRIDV
UniProt P41273, whole entry, looked up: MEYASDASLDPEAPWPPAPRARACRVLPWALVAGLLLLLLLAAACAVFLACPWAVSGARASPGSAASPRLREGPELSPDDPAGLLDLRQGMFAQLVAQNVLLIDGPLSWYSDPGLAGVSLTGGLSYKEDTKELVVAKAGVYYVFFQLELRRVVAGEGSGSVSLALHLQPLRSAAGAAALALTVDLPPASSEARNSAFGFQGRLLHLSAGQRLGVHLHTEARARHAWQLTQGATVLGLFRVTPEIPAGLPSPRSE
UniProt Q9HBL0: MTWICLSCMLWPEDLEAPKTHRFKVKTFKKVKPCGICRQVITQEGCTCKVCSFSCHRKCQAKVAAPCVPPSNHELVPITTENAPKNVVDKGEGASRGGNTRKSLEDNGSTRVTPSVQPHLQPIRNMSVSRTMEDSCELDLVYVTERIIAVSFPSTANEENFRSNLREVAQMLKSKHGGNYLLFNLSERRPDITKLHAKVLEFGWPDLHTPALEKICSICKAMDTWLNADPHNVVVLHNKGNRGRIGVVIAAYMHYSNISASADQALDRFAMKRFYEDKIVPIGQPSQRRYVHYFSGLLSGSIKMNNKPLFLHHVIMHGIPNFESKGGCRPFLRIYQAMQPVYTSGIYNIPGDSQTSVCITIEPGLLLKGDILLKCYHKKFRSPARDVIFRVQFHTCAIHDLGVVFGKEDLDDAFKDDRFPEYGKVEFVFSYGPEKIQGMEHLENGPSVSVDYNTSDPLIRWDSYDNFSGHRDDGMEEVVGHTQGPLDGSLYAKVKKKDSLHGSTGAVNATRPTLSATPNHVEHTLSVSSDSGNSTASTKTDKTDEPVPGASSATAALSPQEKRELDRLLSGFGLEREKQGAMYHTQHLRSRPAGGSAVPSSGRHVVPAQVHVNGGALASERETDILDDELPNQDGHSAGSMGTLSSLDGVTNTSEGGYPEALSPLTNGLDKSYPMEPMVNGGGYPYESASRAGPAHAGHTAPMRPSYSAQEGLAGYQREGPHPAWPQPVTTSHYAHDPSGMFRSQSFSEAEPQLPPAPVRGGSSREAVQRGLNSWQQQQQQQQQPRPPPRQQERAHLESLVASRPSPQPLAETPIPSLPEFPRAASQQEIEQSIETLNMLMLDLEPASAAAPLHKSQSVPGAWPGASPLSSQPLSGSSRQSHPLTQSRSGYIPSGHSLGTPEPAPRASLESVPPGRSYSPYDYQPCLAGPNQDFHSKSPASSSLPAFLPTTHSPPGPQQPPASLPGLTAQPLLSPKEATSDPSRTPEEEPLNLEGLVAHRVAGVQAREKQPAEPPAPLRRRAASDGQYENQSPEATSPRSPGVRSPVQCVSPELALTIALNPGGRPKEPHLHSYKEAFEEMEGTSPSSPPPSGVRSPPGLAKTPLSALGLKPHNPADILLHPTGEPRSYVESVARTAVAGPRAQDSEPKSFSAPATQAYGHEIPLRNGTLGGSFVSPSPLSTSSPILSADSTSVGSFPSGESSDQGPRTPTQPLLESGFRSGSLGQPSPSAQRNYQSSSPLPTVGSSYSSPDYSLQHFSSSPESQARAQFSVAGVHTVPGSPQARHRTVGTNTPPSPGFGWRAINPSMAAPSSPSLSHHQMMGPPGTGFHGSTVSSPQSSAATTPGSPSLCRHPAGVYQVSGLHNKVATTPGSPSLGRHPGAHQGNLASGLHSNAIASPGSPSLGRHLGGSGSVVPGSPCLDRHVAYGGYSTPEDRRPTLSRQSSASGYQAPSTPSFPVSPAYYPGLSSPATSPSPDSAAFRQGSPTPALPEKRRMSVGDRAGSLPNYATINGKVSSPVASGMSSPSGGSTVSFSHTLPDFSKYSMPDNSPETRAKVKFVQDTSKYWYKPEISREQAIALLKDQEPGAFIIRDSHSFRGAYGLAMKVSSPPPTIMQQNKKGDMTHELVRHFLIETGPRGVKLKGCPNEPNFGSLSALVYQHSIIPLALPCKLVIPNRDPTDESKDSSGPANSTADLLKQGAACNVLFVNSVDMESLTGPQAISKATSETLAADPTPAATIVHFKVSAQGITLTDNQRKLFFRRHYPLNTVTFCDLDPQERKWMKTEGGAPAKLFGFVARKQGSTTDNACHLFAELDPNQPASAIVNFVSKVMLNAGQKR
UniProt Q9H1E5: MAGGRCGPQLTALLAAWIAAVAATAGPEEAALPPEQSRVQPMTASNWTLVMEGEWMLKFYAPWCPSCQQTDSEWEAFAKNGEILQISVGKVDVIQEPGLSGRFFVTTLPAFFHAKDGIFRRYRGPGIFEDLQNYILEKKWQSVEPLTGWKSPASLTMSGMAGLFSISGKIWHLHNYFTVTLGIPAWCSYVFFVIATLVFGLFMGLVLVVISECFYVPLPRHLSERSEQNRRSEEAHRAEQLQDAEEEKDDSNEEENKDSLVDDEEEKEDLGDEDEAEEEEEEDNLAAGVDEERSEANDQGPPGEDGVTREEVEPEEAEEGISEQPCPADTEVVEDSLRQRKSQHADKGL
UniProt O43399: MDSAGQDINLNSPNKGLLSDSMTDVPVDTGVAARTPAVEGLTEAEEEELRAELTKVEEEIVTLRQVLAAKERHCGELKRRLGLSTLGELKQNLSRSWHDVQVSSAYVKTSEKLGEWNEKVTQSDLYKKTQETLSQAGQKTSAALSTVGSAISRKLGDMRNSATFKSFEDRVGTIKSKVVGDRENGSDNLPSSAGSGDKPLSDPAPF
UniProt Q86W33: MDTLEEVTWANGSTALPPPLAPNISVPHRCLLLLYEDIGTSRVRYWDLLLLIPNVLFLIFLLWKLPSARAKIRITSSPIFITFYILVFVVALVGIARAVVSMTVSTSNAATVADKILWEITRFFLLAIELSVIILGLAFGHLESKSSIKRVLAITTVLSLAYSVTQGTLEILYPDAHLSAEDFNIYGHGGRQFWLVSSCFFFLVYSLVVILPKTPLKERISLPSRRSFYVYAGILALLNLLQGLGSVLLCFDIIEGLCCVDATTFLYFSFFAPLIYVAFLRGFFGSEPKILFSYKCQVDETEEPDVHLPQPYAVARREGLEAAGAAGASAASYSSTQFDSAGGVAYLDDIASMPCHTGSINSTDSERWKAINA
UniProt Q96B49: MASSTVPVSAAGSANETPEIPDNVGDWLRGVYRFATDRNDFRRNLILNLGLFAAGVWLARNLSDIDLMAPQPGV
UniProt Q07912: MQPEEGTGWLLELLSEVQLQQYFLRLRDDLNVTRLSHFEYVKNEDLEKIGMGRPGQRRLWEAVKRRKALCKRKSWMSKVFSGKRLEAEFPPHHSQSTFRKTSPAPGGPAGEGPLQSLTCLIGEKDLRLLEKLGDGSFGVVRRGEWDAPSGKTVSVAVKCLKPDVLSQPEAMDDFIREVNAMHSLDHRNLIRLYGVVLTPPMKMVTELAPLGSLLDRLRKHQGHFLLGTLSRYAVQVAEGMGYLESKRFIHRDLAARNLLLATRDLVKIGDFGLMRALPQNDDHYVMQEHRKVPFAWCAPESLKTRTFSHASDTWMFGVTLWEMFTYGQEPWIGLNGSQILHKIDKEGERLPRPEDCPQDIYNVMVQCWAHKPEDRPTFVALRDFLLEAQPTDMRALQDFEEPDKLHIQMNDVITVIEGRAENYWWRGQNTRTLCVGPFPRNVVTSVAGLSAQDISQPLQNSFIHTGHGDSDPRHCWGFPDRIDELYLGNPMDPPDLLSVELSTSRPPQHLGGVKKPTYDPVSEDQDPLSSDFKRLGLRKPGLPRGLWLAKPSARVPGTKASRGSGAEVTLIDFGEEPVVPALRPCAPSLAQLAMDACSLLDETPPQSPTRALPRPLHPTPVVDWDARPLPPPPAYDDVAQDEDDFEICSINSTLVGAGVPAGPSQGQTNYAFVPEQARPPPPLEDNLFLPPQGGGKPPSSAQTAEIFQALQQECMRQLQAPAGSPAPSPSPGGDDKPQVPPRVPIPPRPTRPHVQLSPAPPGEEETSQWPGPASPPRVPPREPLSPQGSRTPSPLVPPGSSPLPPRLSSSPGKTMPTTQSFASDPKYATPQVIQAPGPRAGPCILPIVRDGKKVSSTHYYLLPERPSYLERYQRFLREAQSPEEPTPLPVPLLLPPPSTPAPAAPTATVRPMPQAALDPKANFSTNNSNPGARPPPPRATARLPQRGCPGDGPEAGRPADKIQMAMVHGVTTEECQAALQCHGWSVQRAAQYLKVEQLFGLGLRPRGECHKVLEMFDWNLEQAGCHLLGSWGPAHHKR
UniProt Q9NWH2: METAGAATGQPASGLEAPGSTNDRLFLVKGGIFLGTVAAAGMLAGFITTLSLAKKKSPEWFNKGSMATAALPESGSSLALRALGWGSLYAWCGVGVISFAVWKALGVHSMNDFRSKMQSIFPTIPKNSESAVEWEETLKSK
UniProt Q9BXS4: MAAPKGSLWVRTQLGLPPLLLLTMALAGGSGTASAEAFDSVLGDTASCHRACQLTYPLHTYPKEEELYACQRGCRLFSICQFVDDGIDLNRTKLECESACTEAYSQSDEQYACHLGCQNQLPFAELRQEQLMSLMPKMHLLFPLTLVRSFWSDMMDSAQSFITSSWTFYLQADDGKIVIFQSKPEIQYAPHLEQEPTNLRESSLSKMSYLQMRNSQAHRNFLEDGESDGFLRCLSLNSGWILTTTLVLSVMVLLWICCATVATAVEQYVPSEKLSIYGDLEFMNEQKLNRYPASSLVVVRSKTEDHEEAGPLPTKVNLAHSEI
UniProt Q96Q45: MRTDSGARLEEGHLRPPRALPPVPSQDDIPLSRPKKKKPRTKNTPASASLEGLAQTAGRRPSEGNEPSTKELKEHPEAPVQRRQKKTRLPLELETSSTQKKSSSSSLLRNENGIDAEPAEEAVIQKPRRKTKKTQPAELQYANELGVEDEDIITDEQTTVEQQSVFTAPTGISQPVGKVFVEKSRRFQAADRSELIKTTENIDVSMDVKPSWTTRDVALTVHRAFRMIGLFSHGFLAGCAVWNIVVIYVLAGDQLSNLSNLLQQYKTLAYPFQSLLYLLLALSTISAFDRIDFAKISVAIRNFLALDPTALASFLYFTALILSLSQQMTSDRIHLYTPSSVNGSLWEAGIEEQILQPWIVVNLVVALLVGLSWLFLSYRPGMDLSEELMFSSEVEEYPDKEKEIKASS

log2 fold change, inactive:
TMEM98 (UniProt Q9Y2Y6) -0.073
TNKS (UniProt O95271) 0.038
TMEM248 (UniProt Q9NWD8) 0.045
TNNC2 (UniProt P02585) -0.004
TNNC1 (UniProt P63316) 0.228
TPM3 isoform 3 (UniProt P06753) 0.176
TNFAIP1 (UniProt Q13829) 0.139
TMEM267 (UniProt Q0VDI3) 0.251
TNFSF9 (UniProt P41273) 0.058
TMEM268 isoform 3 (UniProt Q5VZI3) 0.02
TNS1 (UniProt Q9HBL0) 0.111
TMX4 (UniProt Q9H1E5) -0.025
TPD52L2 isoform 3 (UniProt O43399) 0.377
TPRA1 (UniProt Q86W33) -0.007
TOMM6 (UniProt Q96B49) -0.194
TNK2 isoform 3 (UniProt Q07912) 0.138
TMEM242 (UniProt Q9NWH2) 0.034
TMEM59 (UniProt Q9BXS4) 0.021
TMEM237 isoform 3 (UniProt Q96Q45) 0.147
TPRG1L (UniProt Q5T0D9) 0.077

2 consecutive records from above:
log2 fold change, inactive:
TNKS (UniProt O95271) 0.038
TMEM248 (UniProt Q9NWD8) 0.045

Source: the supplement of paper PMC10849652
